Screen size: about 340,000 compounds; about 6,200 (1.8%) were called active. Inconclusive means that the source gave no clear call. Such entries were picked first, then a sample of the others. Calls follow the shape of the dose curve; as a rule, active = well fitted activation curve with a large enough effect; inconclusive = small, poorly fitted or top-dose-only effect; inactive = no such curve, though single readings can be large or run the other way. Where the call is inconclusive, the potency comes from a doubtful curve fit.
Test: A quantitative high throughput screen for small molecules that induce DNA re-replication in SW480 colon adenocarcinoma cells. Also: nearly all actives have a fitted effect of over 55% in size. As to re-replication activation: % of control where 0% means no effect.
Conditions: Hoechst DNA content imaging, 48 h; re-replication activation: at 46.1 µM (top of the series) unless noted
Summary of the method: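 Compounds, transferred as 23 nL by pin tool, were incubated with cells for 48 hr; DNA content per nucleus was then quantified by Hoechst staining and fluorescence plate imaging.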
Potency is read from the fitted curve at half-maximal effect.

Structure (SMILES) | Potency | re-replication activation
CC(C)N1CCc2c(sc(NC(=O)c3ccc(C(=O)c4ccccc4)cc3)c2C(N)=O)C1 | inconclusive: 32.6 µM [activator, partial curve, poor fit] | 
CC(C(=O)N1CCOCC1)c1ccc([N+](=O)[O-])cc1 (stereo not drawn) | inconclusive: 29.1 µM [activator, single point] | 
O=C(NN=Cc1cc(Br)c(O)c(Br)c1)c1ccccc1NS(=O)(=O)c1cccs1 |  | inactive: 7.94%
Cc1c(C(=O)NCCC2=CCCCC2)sc2ncnc(N3CCCCC3C)c12 (stereo not drawn) | inconclusive: 20.6 µM [activator, single point] | 
CC(C)(C)C(=O)CSc1ncnc2c1cnn2-c1ccccc1 | inconclusive: 20.6 µM [activator, single point] | 
Cc1cc(-c2nc3cccnc3s2)ccc1NS(=O)(=O)c1ccc2c(c1)OCCO2 | inconclusive: 29.1 µM [activator, single point] | 
O=c1c(C(c2ccc(F)cc2)c2c(O)nc3n(c2=O)CCS3)c(O)nc2n1CCS2 | inconclusive: 29.1 µM [activator, single point] | 
CCc1cc(Cn2nc(-c3ccccc3)cc2C(=O)NCc2cccc(C(F)(F)F)c2)on1 |  | inactive: 5.4%
O=C(Nc1ccc(CN2CCOCC2)cc1)c1ccc(Cl)cc1Cl | inconclusive: 7.31 µM [activator, partial curve, poor fit] | 
CCOC(=O)C1=CN(Cc2cccc(F)c2)S(=O)(=O)N(CC)C1c1ccc(C(F)(F)F)cc1 (stereo not drawn) | inconclusive: 0.146 µM [activator, full curve, poor fit] | 
Cc1cccc(NC(=O)/C(C#N)=C/c2ccc(Cl)cc2)n1 |  | inactive: 1.74%
COCCn1c(SCC(=O)Nc2ccc(OC)cc2OC)nc2ccccc2c1=O |  | inactive: -6.61%
Cc1ccc(S(=O)(=O)N2[C@@H](c3ccc(Cl)cc3)C(C(=O)O)=CC[C@H]2c2cccc(Cl)c2)cc1 | inconclusive: 23.1 µM [activator, partial curve, poor fit] | 
CCC1CCCCN1S(=O)(=O)c1ccc([N+](=O)[O-])cc1 (stereo not drawn) | inconclusive: 4.61 µM [activator, full curve, poor fit] | 
Oc1ccc(NCc2cccc(OCc3ccccc3)c2)cc1 | inconclusive: 29.1 µM [activator, single point] | 
S=c1c2c(nc3nc[nH]n13)CCC2 | inconclusive: 29.1 µM [activator, single point] | 
CN(C)C(CNC(=O)CSc1nc2sc3c(c2c(=O)n1C)CCCC3)c1ccccc1 (stereo not drawn) |  | inactive: -13.3%
Cn1cc([N+](=O)[O-])c(C(=O)Nc2ccc3nc(-c4ccccc4)[nH]c3c2)n1 | inconclusive: 29.1 µM [activator, single point] | 

One compound at a time (already shown).
`CN(C)C(CNC(=O)CSc1nc2sc3c(c2c(=O)n1C)CCCC3)c1ccccc1` (stereo not drawn) reads re-replication activation: inactive: -13.3%
`CC(C)(C)C(=O)CSc1ncnc2c1cnn2-c1ccccc1` reads Potency: inconclusive: 20.6 µM [activator, single point]
